Here are results for 1 compound from ChEMBL document CHEMBL1201862, “PubChem BioAssay data set” (2004).

SMILES strings stand for the structures.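 Following 48 hours of exposure in 96-well plates, responses at five concentrations were used to interpolate endpoints linearly. GI50 = concentration required for 50% inhibition of growth.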 Active and inactive are the calls of the source. Rule as the data show it: active = GI50 up to about 1.1 µM and inactive = higher.

The test system of experiment [1] is SK-MEL-5. In words: inhibition of tumour cell growth, NCI panel, 48 h.
Experiment [2] relates to M14. Description: inhibition of tumour cell growth, NCI panel, 48 h.

Consider `CN[C@H]1C[C@@H]2O[C@@](C)([C@H]1OC)n1c3ccccc3c3c4c(c5c6ccccc6n2c5c31)C(=O)NC4`, for which the GI50 was active: 11.1 nM in experiment [1] and active: 9.89 nM in experiment [2].
